{"sequences": {"note": "Amino acid sequences for entries named in this document (tags omitted).", "UniProt P11142": "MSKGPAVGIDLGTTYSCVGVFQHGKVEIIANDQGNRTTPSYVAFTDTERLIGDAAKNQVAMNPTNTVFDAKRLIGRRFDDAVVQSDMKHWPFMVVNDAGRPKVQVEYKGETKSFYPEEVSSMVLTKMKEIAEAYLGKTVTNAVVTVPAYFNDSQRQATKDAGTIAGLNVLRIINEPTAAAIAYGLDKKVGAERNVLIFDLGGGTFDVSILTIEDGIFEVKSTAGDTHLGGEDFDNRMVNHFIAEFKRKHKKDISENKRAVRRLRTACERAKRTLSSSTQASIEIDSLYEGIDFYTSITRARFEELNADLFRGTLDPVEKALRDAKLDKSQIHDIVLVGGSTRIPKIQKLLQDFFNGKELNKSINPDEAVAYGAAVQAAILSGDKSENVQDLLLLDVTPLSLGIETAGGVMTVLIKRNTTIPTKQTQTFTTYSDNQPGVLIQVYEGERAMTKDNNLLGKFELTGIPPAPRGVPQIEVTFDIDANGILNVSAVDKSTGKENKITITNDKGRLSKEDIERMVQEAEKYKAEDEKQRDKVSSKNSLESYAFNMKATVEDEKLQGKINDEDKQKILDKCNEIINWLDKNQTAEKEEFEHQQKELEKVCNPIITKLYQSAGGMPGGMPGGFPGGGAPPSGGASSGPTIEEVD"}, "source": "paper PMC12561377", "molecules": {"B1": {"name": "histone deacetylase 8 (HDAC8) (enzyme, UniProt Q9BY41 1-377)", "chain": "MEEPEEPADSGQSLVPVYIYSPEYVSMCDSLAKIPKRASMVHSLIEAYALHKQMRIVKPKVASMEEMATFHTDAYLQHLQKVSQEGDDDHPDSIEYGLGYDCPATEGIFDYAAAIGGATITAAQCLIDGMCKVAINWSGGWHHAKKDEASGFCYLNDAVLGILRLRRKFERILYVDLDLHHGDGVEDAFSFTSKVMTVSLHKFSPGFFPGTGDVSDVGLGKGRYYSVNVPIQDGIQDEKYYQICESVLKEVYQAFNPKAVVLQLGADTIAGDPMCSFNMTPVGIGKCLKYILQWQLATLILGGGGYNLANTARCWTYLTGVILGKTLSSEIPDHEFFTAYGPDYVLEITPSCRPDRNEPHRIQQILNYIKGNLKHVV"}, "B2": {"name": "HDAC8 (construct transfected into 293T cells) (enzyme, UniProt Q9BY41 1-377)", "chain": "B1 chain"}, "B3": {"name": "ZDHHC12 (in the cell lysate used for the GST pull-down) (enzyme, UniProt Q96GR4 1-267)", "chain": "MAPWALLSPGVLVRTGHTVLTWGITLVLFLHDTELRQWEEQGELLLPLTFLLLVLGSLLLYLAVSLMDPGYVNVQPQPQEELKEEQTAMVPPAIPLRRCRYCLVLQPLRARHCRECRRCVRRYDHHCPWMENCVGERNHPLFVVYLALQLVVLLWGLYLAWSGLRFFQPWGQWLRSSGLLFATFLLLSLFSLVASLLLVSHLYLVASNTTTWEFISSHRIAYLRQRPSNPFDRGLTRNLAHFFCGWPSGSWETLWAEEEEEGSSPAV"}}, "key": {"[1]": {"target": "T1, HDAC8 (construct transfected into 293T cells) (UniProt Q9BY41)", "T1 sequence": "B1 chain", "experiment": "co-IP; 293T cells transfected with the indicated constructs for 24 h; RIPA lysates, magnetic beads precoated with specific antibodies, 4 °C overnight, Western blot"}, "Flag‐HDAC8 C244S": {"target": "T2, Flag‐HDAC8 C244S (UniProt Q9BY41)", "T2 sequence": "B1 chain with C244S", "experiment": "co-IP; Huh7 and Hep3B cells transfected for 24 h and treated with NH4Cl for 8 h; immunoprecipitation with anti‐Flag antibody, Western blot"}, "[2]": {"target": "T3, histone deacetylase 8 (HDAC8) (human (endogenous in Huh7 and Hep3B)) (UniProt Q9BY41)", "T3 sequence": "B1 chain", "experiment": "co-IP; endogenous proteins, Huh7 and Hep3B lysates in RIPA buffer; magnetic beads precoated with specific antibodies, 4 °C overnight, washed 6 times, Western blot"}, "[3]": {"target": "T4, zinc finger DHHC‐type palmitoyltransferase 12 (ZDHHC12) (human (endogenous in Huh7 and Hep3B)) (UniProt Q96GR4)", "T4 sequence": "B3 chain", "experiment": "proximity ligation; Duolink in situ PLA in fixed and permeabilised Huh7 cells with the indicated antibodies"}, "[4]": {"target": "T4, zinc finger DHHC‐type palmitoyltransferase 12 (ZDHHC12) (human (endogenous in Huh7 and Hep3B))", "experiment": "co-IP; endogenous proteins, Huh7 and Hep3B lysates in RIPA buffer; magnetic beads precoated with specific antibodies, 4 °C overnight, washed 6 times, Western blot"}, "[5]": {"target": "T5, ZDHHC12 (construct transfected into 293T cells) (UniProt Q96GR4)", "T5 sequence": "B3 chain", "experiment": "co-IP; 293T cells transfected with the indicated constructs for 24 h; RIPA lysates, magnetic beads precoated with specific antibodies, 4 °C overnight, Western blot"}, "[6]": {"target": "T6, GST-HDAC8 (recombinant protein of HDAC8) (UniProt Q9BY41)", "T6 sequence": "B1 chain", "experiment": "pull-down; GST fusion protein from E. coli BL21 captured on glutathione‐agarose beads, washed, incubated with cell lysate of the other protein overnight at 4 °C; only the target purified"}}, "note": "Numbering of substitutions follows the chain as printed. Results are given in words; binding and its absence hold for the method and conditions named. Binding seen in cells or lysates may run through a third protein. Some entries that bind do so weakly or less than the wild type. For some of these results: Sequences can lack the tags named with a protein."}
{"molecule": "HSC70 (construct transfected into 293T cells) (from UniProt P11142 1-646)", "values": [{"measurement": "binding", "setting": "[1]", "result": "binds"}]}
{"molecule": "HSC70 (from UniProt P11142 1-646)", "values": [{"measurement": "binding", "setting": "Flag‐HDAC8 C244S", "result": "binds"}, {"measurement": "binding", "setting": "[2]", "result": "binds"}]}
{"molecule": "B1", "values": [{"measurement": "binding", "setting": "[3]", "result": "binds"}, {"measurement": "binding", "setting": "[4]", "result": "binds"}]}
{"molecule": "B2", "values": [{"measurement": "binding", "setting": "[5]", "result": "binds"}]}
{"molecule": "B3", "values": [{"measurement": "binding", "setting": "[6]", "result": "binds"}]}
